We go through 38 targets from the supplement of paper PMC10849652.

By UniProt entry, the sequences of proteins in these tests, tags left out. Where a name states a change or a piece, a line headed by the entry shows the natural chain unless it says otherwise.
UniProt Q9P2W9: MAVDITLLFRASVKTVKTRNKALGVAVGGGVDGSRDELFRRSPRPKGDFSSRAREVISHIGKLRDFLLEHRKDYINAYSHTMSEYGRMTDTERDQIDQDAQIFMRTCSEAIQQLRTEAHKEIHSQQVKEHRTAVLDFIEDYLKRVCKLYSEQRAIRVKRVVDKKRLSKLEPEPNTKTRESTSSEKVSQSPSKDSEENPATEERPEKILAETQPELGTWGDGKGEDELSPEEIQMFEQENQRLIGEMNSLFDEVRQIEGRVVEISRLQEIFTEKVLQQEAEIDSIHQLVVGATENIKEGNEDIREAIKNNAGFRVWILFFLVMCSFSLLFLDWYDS
UniProt Q7L7X3: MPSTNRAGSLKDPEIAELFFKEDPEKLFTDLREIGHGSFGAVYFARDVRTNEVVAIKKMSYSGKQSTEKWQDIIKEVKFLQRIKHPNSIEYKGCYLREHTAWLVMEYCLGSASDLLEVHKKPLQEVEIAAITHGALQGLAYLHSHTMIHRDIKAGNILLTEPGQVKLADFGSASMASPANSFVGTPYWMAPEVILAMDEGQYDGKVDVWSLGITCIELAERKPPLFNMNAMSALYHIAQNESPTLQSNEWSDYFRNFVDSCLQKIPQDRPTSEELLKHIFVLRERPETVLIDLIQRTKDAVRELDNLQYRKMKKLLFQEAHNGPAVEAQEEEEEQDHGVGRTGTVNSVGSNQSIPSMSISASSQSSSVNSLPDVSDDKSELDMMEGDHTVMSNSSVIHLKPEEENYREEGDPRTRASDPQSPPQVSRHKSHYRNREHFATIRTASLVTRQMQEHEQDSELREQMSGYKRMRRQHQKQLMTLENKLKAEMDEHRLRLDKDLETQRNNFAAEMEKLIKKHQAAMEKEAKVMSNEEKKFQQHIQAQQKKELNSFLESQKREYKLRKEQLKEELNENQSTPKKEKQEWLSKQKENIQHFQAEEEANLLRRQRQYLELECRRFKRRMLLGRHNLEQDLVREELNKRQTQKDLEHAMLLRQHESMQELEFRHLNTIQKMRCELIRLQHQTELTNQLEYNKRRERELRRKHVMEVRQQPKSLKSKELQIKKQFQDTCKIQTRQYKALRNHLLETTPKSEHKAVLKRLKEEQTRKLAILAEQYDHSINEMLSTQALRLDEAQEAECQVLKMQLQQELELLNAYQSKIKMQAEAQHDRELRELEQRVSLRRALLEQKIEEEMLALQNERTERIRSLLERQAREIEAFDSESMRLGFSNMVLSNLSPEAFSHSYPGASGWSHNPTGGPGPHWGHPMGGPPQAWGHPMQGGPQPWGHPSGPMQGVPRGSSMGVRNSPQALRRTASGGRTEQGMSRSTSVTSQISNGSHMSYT
UniProt Q12846: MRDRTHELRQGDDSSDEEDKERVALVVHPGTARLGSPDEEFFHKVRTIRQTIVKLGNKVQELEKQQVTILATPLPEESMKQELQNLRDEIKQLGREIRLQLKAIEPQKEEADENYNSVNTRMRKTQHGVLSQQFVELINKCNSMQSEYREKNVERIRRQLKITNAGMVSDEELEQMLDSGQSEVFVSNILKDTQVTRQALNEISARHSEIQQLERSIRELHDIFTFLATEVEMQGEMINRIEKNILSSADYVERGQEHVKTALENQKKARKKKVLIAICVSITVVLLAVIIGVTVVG
UniProt Q7RTN6: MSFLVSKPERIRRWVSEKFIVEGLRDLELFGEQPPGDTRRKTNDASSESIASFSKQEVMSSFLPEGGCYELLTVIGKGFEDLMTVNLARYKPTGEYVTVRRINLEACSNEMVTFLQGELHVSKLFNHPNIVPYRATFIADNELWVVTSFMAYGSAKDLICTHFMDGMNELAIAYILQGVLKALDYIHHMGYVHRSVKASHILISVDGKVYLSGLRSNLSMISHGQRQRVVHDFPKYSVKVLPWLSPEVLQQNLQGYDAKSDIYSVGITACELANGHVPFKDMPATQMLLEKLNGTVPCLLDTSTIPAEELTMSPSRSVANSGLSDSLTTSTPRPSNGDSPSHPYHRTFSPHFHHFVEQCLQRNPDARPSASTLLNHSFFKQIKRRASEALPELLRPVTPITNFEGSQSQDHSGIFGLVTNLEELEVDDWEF
UniProt Q9NVG8: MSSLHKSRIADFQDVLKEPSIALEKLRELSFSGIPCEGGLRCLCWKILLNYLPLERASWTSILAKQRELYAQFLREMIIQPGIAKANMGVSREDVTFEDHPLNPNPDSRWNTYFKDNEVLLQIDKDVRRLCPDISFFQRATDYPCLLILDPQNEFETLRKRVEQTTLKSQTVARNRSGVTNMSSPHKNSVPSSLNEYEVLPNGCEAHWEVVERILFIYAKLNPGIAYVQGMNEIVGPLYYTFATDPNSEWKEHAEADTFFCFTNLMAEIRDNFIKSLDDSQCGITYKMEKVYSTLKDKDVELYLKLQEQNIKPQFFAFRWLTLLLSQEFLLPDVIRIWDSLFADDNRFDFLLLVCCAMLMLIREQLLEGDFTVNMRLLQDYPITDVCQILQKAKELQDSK
UniProt P27105: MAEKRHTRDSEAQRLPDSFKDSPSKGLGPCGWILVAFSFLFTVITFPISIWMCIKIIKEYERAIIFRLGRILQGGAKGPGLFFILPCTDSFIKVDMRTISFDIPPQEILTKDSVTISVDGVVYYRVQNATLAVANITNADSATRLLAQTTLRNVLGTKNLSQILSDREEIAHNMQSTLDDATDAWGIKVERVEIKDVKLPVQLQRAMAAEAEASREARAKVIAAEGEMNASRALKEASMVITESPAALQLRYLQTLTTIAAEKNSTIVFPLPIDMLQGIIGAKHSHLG
UniProt O60506: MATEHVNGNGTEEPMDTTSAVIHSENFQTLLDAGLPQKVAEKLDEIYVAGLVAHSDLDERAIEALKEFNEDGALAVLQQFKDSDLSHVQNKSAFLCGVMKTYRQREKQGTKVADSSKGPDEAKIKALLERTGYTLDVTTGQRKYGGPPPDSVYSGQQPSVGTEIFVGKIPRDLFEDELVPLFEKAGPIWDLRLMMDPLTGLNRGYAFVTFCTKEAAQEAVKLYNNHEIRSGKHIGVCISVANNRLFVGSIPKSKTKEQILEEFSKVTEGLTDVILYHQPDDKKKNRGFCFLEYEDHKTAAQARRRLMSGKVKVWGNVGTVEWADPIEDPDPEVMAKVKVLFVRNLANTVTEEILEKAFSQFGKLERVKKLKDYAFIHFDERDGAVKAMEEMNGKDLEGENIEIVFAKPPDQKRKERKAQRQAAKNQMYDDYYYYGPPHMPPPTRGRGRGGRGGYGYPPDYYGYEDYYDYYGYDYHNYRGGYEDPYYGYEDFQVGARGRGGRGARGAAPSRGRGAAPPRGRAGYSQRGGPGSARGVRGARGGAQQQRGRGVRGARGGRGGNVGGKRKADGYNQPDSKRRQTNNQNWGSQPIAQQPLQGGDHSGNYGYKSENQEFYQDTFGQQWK
UniProt Q6ICL3: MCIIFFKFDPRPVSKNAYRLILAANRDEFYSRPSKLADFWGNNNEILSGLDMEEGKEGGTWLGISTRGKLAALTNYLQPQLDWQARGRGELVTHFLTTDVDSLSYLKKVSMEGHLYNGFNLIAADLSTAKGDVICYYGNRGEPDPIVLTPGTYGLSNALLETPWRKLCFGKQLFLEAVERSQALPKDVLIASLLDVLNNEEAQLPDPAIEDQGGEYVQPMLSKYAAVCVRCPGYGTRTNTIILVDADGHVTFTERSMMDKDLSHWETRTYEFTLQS
UniProt Q15633: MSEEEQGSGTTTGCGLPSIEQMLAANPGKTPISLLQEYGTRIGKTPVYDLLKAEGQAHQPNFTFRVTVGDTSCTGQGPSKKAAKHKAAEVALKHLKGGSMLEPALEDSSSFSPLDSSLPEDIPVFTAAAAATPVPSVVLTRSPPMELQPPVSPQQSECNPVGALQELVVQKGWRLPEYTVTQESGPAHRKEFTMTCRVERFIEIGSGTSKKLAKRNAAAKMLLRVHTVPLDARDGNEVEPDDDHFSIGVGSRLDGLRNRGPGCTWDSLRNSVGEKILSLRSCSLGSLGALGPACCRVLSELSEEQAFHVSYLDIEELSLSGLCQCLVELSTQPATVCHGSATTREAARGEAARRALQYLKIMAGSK
UniProt Q15527: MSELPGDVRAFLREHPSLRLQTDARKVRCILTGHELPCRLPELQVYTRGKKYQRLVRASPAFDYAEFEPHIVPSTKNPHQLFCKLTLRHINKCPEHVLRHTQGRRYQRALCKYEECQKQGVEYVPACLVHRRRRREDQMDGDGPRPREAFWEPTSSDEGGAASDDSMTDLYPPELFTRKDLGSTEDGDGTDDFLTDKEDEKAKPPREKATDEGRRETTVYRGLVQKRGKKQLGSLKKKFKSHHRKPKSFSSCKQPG
UniProt Q17R31: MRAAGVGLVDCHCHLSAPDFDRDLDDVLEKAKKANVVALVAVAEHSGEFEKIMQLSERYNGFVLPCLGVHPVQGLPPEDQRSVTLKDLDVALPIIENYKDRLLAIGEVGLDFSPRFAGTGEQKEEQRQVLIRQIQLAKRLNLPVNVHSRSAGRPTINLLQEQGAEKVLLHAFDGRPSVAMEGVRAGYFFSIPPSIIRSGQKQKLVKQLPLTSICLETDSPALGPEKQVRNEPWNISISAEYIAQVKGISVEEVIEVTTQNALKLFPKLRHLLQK
UniProt Q9NZ72: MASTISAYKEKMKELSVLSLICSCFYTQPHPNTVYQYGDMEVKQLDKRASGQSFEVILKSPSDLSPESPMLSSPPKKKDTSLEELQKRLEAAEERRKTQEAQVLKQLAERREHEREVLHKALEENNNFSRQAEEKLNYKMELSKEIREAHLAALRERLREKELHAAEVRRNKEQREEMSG
UniProt A2RTX5: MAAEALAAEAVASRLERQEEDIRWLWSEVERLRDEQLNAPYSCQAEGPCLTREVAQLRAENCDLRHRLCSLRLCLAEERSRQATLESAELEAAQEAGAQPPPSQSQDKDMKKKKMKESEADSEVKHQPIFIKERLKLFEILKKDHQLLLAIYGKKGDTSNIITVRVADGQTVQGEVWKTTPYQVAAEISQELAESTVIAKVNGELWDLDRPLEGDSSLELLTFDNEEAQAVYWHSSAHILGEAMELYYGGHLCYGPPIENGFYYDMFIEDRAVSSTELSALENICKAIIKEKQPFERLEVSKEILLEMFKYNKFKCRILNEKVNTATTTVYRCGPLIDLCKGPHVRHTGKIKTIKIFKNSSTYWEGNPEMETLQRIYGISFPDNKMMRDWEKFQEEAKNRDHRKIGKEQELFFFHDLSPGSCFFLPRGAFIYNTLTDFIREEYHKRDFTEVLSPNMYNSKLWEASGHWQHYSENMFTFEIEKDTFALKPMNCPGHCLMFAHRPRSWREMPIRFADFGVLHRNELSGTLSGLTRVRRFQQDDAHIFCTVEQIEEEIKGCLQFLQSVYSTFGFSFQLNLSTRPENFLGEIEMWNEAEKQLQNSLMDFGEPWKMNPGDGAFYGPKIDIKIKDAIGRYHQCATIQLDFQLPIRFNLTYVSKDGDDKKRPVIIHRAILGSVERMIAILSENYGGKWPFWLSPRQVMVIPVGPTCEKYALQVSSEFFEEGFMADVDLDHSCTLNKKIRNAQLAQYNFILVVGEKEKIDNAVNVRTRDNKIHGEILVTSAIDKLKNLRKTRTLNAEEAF
UniProt Q15208: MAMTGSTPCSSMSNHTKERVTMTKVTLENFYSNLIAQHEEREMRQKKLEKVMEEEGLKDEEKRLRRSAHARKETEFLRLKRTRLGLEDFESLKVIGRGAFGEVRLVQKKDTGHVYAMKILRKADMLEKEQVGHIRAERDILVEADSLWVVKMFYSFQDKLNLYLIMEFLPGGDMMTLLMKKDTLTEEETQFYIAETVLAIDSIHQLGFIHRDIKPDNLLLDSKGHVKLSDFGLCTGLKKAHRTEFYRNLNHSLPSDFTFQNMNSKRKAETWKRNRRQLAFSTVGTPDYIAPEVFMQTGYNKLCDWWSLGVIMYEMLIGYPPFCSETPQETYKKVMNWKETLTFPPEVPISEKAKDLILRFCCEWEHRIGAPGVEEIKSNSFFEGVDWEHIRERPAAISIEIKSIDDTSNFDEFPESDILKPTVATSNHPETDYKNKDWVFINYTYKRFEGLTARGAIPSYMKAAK
UniProt Q9UJZ1: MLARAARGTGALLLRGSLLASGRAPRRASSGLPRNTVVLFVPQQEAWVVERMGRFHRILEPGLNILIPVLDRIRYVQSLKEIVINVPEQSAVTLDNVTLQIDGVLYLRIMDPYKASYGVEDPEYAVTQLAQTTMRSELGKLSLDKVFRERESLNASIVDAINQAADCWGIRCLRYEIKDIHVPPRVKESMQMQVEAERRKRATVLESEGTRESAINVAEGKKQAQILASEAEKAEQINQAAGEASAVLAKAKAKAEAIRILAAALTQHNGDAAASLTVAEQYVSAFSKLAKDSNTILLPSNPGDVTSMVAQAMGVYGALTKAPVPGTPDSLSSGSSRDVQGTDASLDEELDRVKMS
UniProt P37802: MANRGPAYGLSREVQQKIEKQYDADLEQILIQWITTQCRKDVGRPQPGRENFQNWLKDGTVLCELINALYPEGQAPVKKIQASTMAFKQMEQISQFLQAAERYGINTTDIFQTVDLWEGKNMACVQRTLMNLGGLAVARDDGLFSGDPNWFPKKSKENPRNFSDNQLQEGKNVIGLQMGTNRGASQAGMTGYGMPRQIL

This is one part of the list.

Compound in this assay: CON(C)C(=O)N1N=C(c2cc(F)ccc2F)S[C@@]1(CCCN)c1ccccc1 [filanesib]
Nature of the assay: log2 fold change, soluble protein after heating vs DMSO (PISA); higher = thermal stabilisation; K562 cells, 10 uM, 30 min; active = over 0.2 and 3.5 SD of the protein, either way, in both replicates (recomputed). A digest of the protocol: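 Thermal stability values are relative to control samples and come from duplicates. They are expressed as log2 fold changes. For measurement, K562 cells (2×10^6 cells/mL) received 10 μM compound for 30 min, and aliquots were heated for 3 min over 48°C-58°C, pooled, and extracted at 4°C in PBS with 0.5% NP-40. Soluble protein, the supernatant after 21,000xg for 90 min, was quantified by TMTpro 16plex LC-MS/MS with equalised channel sums.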
With STX18 (UniProt Q9P2W9), the log2 fold change is inactive: 0.003.
Under SYMPK (UniProt Q92797) stands inactive: -0.102; under SURF1 (UniProt Q15526), inactive: -0.032.
For the target TANK (UniProt Q92844), the log2 fold change was inactive: 0.03.
On to TAOK1 (UniProt Q7L7X3), for which the log2 fold change is inactive: 0.054.
For STRIP1 (UniProt Q5VSL9), the log2 fold change was inactive: -0.034.
Turning to STX4 (UniProt Q12846), the log2 fold change was inactive: 0.037.
Regarding TBC1D10B (UniProt Q4KMP7), the log2 fold change was inactive: 0.062.
For the target STRADA (UniProt Q7RTN6), the log2 fold change was inactive: 0.081.
The same measure for STX5 (UniProt Q13190): inactive: 0.065; for STXBP2 isoform 3 (UniProt Q15833): inactive: 0.001.
On to SULT1A1 (UniProt P50225), for which the log2 fold change was inactive: 0.034.
The same measure for SUGP1 (UniProt Q8IWZ8): inactive: -0.01; for TBC1D13 (UniProt Q9NVG8): inactive: 0.001; for STOM (UniProt P27105): inactive: -0.068.
The same measure for SYNCRIP (UniProt O60506): inactive: 0.113; for TANGO2 isoform 4 (UniProt Q6ICL3): inactive: 0.014; for STX6 (UniProt O43752): inactive: 0.056.
The same measure for TAOK3 (UniProt Q9H2K8): inactive: 0.014.
For the target TARBP2 (UniProt Q15633), the log2 fold change is inactive: 0.065.
Under TACO1 (UniProt Q9BSH4) stands inactive: -0.137.
As for SURF2 (UniProt Q15527), the log2 fold change was inactive: 0.014.
Take SYNCRIP isoform 3 (UniProt O60506): the log2 fold change is inactive: -0.125.
Under SUPT4H1 (UniProt P63272) stands inactive: -0.028.
Under TATDN3 isoform 3 (UniProt Q17R31) stands inactive: -0.004.
The same measure for TACC1 isoform 2 (UniProt O75410): inactive: -0.039; for TAX1BP1 (UniProt Q86VP1): inactive: -0.043.
STMN3 (UniProt Q9NZ72): the log2 fold change is inactive: 0.021.
Under TAF8 isoform 2 (UniProt Q7Z7C8) stands inactive: -0.103; under TARSL2 (UniProt A2RTX5), inactive: -0.096; under STRN (UniProt O43815), inactive: -0.002.
For the target SUN1 isoform 9 (UniProt O94901), the log2 fold change was inactive: 0.084.
Turning to STK38 (UniProt Q15208), the log2 fold change was inactive: -0.024.
Regarding STOML2 (UniProt Q9UJZ1), the log2 fold change was inactive: -0.011.
The same measure for TAGLN2 isoform 2 (UniProt P37802): inactive: -0.028.
For the target STX12 (UniProt Q86Y82), the log2 fold change is inactive: -0.033.
Under SYNE2 isoform 2 (UniProt Q8WXH0) stands inactive: 0.048; under SULT1A3 isoform 3 (UniProt P0DMM9), inactive: -0.085.
